Data reported in doi:10.1101/2024.04.26.591336.
Like-named read-outs stand apart in the source and are kept apart here. These are yes or no findings as the source states them, for the method shown. Binding seen in cells or lysates may run through a third protein. These calls come from enrichment with a bait or labelling near it, and not all partners need be listed. For some assays here: No binding means not detected with the bait.

Chains of the proteins cited; added tags and fusions are not shown. Lines headed by an entry give the natural chain unless they say otherwise; changes in a name come on top. Residues count along the entry.
UniProt Q04721, residues 26-2471: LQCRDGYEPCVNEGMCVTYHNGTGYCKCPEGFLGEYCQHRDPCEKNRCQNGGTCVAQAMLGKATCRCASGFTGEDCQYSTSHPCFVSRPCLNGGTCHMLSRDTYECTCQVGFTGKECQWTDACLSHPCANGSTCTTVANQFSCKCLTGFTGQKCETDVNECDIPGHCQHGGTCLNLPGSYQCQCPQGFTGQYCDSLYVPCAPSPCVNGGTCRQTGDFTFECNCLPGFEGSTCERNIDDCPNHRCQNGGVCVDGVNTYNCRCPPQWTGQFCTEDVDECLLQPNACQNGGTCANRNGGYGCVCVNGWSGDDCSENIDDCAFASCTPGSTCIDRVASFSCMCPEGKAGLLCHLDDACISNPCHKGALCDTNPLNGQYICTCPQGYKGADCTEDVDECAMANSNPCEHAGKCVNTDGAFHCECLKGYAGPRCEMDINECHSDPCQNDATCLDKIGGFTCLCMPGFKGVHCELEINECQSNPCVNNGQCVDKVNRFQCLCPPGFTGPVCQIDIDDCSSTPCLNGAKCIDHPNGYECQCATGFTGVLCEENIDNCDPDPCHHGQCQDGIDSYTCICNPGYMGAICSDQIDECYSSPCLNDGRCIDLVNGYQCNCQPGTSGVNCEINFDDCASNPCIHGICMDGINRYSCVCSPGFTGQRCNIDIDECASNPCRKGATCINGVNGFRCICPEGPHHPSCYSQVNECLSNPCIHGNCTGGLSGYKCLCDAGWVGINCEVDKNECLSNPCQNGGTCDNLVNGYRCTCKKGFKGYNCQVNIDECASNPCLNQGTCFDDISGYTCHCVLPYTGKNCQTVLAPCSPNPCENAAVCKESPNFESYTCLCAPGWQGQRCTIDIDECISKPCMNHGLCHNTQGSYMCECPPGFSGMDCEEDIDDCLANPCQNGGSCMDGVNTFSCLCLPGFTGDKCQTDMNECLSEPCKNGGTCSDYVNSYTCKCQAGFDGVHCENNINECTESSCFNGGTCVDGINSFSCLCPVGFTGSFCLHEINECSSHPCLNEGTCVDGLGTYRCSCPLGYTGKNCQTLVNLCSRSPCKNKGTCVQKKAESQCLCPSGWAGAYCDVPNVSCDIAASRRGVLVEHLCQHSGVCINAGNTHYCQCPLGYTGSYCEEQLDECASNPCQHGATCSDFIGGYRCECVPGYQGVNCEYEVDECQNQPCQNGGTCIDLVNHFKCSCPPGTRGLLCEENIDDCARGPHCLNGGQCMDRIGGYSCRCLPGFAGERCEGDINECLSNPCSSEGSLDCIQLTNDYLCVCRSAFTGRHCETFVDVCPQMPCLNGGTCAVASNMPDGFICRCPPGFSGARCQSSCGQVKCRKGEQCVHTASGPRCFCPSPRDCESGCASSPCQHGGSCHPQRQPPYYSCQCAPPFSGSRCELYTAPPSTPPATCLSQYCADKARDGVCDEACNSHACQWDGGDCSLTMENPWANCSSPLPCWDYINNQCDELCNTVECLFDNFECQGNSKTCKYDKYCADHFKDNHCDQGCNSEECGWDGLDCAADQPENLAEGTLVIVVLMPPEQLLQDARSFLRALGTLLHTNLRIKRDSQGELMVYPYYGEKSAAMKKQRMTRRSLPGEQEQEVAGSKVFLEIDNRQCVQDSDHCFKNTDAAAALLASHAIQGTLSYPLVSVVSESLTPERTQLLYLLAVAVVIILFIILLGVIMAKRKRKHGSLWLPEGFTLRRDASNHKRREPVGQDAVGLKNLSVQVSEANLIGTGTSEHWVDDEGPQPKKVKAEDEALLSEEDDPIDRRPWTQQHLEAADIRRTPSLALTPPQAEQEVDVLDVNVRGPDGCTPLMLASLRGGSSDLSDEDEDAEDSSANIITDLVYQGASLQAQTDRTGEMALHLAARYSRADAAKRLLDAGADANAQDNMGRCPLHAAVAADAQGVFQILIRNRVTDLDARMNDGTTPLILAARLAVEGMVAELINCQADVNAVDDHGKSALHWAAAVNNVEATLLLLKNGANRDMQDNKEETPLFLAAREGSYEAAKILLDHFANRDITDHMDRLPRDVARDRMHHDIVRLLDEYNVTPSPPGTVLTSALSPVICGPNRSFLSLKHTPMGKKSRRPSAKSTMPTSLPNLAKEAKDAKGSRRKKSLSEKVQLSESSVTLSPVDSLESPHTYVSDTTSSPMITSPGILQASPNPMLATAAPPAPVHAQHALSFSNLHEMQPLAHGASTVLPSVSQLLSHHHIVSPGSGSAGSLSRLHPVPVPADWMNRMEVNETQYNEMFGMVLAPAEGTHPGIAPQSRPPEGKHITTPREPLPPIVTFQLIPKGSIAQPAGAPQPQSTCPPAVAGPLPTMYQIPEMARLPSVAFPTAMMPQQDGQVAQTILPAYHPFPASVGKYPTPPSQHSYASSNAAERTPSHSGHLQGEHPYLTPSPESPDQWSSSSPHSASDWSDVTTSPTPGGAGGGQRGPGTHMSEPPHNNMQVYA
UniProt P49336: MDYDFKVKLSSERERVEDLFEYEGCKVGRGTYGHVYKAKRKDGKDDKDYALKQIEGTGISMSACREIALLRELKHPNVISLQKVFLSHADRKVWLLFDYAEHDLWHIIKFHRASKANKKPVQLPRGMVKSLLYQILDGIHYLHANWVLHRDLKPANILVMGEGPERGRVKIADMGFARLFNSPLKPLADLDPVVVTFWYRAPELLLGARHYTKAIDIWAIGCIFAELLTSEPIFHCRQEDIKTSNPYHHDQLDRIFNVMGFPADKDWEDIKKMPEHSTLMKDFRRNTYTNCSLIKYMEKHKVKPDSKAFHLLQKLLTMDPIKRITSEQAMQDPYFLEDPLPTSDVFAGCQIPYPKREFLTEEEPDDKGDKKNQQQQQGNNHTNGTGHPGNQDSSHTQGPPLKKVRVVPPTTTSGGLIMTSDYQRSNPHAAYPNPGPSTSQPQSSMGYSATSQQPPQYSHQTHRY
UniProt Q92585: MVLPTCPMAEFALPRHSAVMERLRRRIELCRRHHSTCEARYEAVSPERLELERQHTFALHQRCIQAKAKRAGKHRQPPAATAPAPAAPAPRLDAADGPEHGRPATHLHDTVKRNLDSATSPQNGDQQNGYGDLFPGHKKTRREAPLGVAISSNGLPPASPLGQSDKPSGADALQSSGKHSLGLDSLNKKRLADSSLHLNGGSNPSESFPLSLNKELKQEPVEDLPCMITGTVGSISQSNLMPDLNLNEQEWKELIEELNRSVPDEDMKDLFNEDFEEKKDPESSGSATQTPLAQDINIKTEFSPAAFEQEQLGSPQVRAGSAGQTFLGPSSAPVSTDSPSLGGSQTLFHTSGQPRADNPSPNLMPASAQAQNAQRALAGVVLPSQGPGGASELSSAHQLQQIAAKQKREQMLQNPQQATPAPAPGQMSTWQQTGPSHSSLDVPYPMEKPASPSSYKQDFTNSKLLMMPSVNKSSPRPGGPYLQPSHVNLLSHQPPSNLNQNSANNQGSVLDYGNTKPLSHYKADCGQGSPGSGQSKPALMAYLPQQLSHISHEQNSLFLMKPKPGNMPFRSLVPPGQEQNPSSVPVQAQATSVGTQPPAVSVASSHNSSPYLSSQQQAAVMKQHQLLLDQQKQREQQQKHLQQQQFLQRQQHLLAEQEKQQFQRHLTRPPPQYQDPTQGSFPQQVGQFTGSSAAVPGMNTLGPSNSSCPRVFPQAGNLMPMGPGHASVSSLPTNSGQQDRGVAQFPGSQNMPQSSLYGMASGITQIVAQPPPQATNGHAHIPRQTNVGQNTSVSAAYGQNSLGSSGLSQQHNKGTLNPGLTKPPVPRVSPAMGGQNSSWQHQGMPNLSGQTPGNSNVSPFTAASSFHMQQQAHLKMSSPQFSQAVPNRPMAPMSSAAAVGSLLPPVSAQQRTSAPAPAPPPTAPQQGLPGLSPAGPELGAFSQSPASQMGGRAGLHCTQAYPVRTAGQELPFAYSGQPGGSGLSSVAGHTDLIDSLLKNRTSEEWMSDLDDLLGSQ
UniProt Q9UKK3: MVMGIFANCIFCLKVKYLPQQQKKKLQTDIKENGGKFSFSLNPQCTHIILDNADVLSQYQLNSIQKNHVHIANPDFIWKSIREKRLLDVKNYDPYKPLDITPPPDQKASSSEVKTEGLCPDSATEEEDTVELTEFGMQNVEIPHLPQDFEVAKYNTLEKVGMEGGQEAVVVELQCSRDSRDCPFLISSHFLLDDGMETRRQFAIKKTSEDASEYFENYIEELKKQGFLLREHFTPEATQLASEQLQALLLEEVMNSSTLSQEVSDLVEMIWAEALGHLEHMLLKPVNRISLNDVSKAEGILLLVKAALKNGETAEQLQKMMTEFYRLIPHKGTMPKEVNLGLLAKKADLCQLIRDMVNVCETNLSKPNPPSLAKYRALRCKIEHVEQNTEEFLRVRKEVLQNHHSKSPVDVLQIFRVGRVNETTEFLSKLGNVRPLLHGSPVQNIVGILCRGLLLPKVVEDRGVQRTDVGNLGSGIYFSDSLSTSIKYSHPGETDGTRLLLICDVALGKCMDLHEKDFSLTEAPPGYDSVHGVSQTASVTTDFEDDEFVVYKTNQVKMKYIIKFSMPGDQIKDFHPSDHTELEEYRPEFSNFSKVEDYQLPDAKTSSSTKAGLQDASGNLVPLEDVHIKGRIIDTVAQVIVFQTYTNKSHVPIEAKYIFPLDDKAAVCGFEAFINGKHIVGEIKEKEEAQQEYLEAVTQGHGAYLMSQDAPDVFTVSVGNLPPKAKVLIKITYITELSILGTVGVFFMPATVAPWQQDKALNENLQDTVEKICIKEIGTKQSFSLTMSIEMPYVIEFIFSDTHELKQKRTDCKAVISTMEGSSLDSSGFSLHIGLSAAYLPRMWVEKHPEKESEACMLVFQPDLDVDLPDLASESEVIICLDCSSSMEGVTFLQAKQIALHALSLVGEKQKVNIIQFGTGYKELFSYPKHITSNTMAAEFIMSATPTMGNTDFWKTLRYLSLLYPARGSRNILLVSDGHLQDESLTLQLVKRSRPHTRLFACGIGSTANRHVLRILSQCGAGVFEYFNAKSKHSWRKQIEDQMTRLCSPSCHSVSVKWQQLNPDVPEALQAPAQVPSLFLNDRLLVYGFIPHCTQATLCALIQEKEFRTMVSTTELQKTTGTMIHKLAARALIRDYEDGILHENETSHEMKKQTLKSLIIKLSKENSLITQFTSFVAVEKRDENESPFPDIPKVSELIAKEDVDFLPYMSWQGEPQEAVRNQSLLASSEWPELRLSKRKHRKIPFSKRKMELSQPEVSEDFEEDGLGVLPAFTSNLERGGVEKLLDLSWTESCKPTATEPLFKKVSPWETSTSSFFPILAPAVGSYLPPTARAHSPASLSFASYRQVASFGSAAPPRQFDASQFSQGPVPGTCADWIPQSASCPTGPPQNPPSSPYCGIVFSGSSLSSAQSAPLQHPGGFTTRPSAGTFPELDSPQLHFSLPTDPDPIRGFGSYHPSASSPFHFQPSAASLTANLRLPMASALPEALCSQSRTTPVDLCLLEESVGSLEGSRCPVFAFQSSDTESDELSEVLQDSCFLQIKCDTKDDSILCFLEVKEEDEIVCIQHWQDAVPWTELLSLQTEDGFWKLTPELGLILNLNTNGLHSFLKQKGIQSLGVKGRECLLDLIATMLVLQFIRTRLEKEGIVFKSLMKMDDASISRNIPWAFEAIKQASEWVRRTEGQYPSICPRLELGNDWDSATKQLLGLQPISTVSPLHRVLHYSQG
UniProt Q06330: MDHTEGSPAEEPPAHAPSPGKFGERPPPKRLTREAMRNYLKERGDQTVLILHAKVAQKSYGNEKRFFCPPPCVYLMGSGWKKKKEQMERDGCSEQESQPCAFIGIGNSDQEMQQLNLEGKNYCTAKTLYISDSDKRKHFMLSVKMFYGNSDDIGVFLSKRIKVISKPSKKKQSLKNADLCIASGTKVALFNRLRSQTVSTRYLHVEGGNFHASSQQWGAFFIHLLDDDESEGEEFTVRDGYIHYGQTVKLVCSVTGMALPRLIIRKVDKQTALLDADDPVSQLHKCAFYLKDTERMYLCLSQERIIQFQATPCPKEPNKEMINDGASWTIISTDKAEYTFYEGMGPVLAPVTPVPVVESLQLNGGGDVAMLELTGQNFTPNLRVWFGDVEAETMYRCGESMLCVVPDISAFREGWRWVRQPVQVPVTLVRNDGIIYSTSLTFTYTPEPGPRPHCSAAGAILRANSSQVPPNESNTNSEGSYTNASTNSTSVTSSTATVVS

Assays:
Experiment in all cases: proximity labelling
[1] = biological target: NOTCH2^ΔE-TurboID (human) (UniProt Q04721)
[2] = biological target: NOTCH2^ΔE-TurboID (human) (UniProt Q04721); remark: listed apart in the source
[3] = biological target: NOTCH2^ΔERA-TurboID (human)
[4] = biological target: NOTCH2^ΔE-TurboID (human) (UniProt Q04721); remark: listed apart in the source

| binding [1] | binding [2] | binding [3] | binding [4] | Molecule |
| --- | --- | --- | --- | --- |
| no binding | – | – | – | CDK8 (from UniProt P49336 1-464) |
| binds | – | – | – | Stat1 (from UniProt P42224 1-750) |
| binds | – | – | – | MED1 (from UniProt Q15648 1-1581) |
| binds | – | – | – | MAML1 (from UniProt Q92585 1-1016) |
| binds | – | – | – | PARP4 (from UniProt Q9UKK3 1-1724) |
| no binding | – | – | – | SPEN (from UniProt Q96T58 1-3664) |
| binds | – | – | – | RBPj (from UniProt Q06330 1-500) |
| binds | binds | – | – | endogenous human NOTCH2 (from UniProt Q04721 26-2471) |
| binds | – | – | – | TP53BP1 (from UniProt Q12888 1-1972) |
| binds | – | – | – | MED13 (from UniProt Q9UHV7 1-2174) |
| – | – | binds | binds | MED9 (protein, UniProt Q9NWA0 1-146) MASAGVAAGRQAEDVLPPTSDQPLPDTKPLPPPQPPPVPAPQPQQSPAPRPQSPARAREEENYSFLPLVHNIIKCMDKDSPEVHQDLNALKSKFQEMRKLISTMPGIHLSPEQQQQQLQSLREQVRTKNELLQKYKSLCMFEIPKE |
| – | – | binds | binds | MED10 (protein, UniProt Q9BTT4 1-135) MAEKFDHLEEHLEKFVENIRQLGIIVSDFQPSSQAGLNQKLNFIVTGLQDIDKCRQQLHDITVPLEVFEYIDQGRNPQLYTKECLERALAKNEQVKGKIDTMKKFKSLLIQELSKVFPEDMAKYRSIRGEDHPPS |
| – | – | binds | binds | MED17 (protein, UniProt Q9NVC6 1-651) MSGVRAVRISIESACEKQVHEVGLDGTETYLPPLSMSQNLARLAQRIDFSQGSGSEEEEAAGTEGDAQEWPGAGSSADQDDEEGVVKFQPSLWPWDSVRNNLRSALTEMCVLYDVLSIVRDKKFMTLDPVSQDALPPKQNPQTLQLISKKKSLAGAAQILLKGAERLTKSVTENQENKLQRDFNSELLRLRQHWKLRKVGDKILGDLSYRSAGSLFPHHGTFEVIKNTDLDLDKKIPEDYCPLDVQIPSDLEGSAYIKVSIQKQAPDIGDLGTVNLFKRPLPKSKPGSPHWQTKLEAAQNVLLCKEIFAQLSREAVQIKSQVPHIVVKNQIISQPFPSLQLSISLCHSSNDKKSQKFATEKQCPEDHLYVLEHNLHLLIREFHKQTLSSIMMPHPASAPFGHKRMRLSGPQAFDKNEINSLQSSEGLLEKIIKQAKHIFLRSRAAATIDSLASRIEDPQIQAHWSNINDVYESSVKVLITSQGYEQICKSIQLQLNIGVEQIRVVHRDGRVITLSYQEQELQDFLLSQMSQHQVHAVQQLAKVMGWQVLSFSNHVGLGPIESIGNASAITVASPSGDYAISVRNGPESGSKIMVQFPRNQCKDLPKSDVLQDNKWSHLRGPFKEVQWNKMEGRNFVYKMELLMSALSPCLL |
| – | – | binds | binds | MED25 (protein, UniProt Q71SY5 1-747) MVPGSEGPARAGSVVADVVFVIEGTANLGPYFEGLRKHYLLPAIEYFNGGPPAETDFGGDYGGTQYSLVVFNTVDCAPESYVQCHAPTSSAYEFVTWLDGIKFMGGGGESCSLIAEGLSTALQLFDDFKKMREQIGQTHRVCLLICNSPPYLLPAVESTTYSGCTTENLVQQIGERGIHFSIVSPRKLPALRLLFEKAAPPALLEPLQPPTDVSQDPRHMVLVRGLVLPVGGGSAPGPLQSKQPVPLPPAAPSGATLSAAPQQPLPPVPPQYQVPGNLSAAQVAAQNAVEAAKNQKAGLGPRFSPITPLQQAAPGVGPPFSQAPAPQLPPGPPGAPKPPPASQPSLVSTVAPGSGLAPTAQPGAPSMAGTVAPGGVSGPSPAQLGAPALGGQQSVSNKLLAWSGVLEWQEKPKPASVDANTKLTRSLPCQVYVNHGENLKTEQWPQKLIMQLIPQQLLTTLGPLFRNSRMVQFHFTNKDLESLKGLYRIMGNGFAGCVHFPHTAPCEVRVLMLLYSSKKKIFMGLIPYDQSGFVNGIRQVITNHKQVQQQKLEQQQRGMGGQQAPPGLGPILEDQARPSQNLLQLRPPQPQPQGTVGASGATGQPQPQGTAQPPPGAPQGPPGAASGPPPPGPILRPQNPGANPQLRSLLLNPPPPQTGVPPPQASLHHLQPPGAPALLPPPHQGLGQPQLGPPLLHPPPAQSWPAQLPPRAPLPGQMLLSGGPRGPVPQPGLQPSVMEDDILMDLI |
| – | – | binds | binds | MED8 (protein, UniProt Q96G25 1-268) MQREEKQLEASLDALLSQVADLKNSLGSFICKLENEYGRLTWPSVLDSFALLSGQLNTLNKVLKHEKTPLFRNQVIIPLVLSPDRDEDLMRQTEGRVPVFSHEVVPDHLRTKPDPEVEEQEKQLTTDAARIGADAAQKQIQSLNKMCSNLLEKISKEERESESGGLRPNKQTFNPTDTNALVAAVAFGKGLSNWRPSGSSGPGQAGQPGAGTILAGTSGLQQVQMAGAPSQQQPMLSGVQMAQAGQPGKMPSGIKTNIKSASMHPYQR |
| – | – | binds | binds | MED26 (protein, UniProt O95402 1-600) MTAAPASPQQIRDRLLQAIDPQSNIRNMVAVLEVISSLEKYPITKEALEETRLGKLINDVRKKTKNEELAKRAKKLLRSWQKLIEPAHQHEAALRGLAGATGSANGGAHNCRPEVGAAGPPRSIHDLKSRNDLQRLPGQRLDRLGSRKRRGDQRDLGHPGPPPKVSKASHDPLVPNSSPLPTNGISGSPESFASSLDGSGHAGPEGSRLERDENDKHSGKIPVNAVRPHTSSPGLGKPPGPCLQPKASVLQQLDRVDETPGPPHPKGPPRCSFSPRNSRHEGSFARQQSLYAPKGSVPSPSPRPQALDATQVPSPLPLAQPSTPPVRRLELLPSAESPVCWLEQPESHQRLAGPGCKAGLSPAEPLLSRAGFSPDSSKADSDAASSGGSDSKKKKRYRPRDYTVNLDGQVAEAGVKPVRLKERKLTFDPMTRQIKPLTQKEPVRADSPVHMEQQSRTELDKQEAKASLQSPFEQTNWKELSRNEIIQSYLSRQSSLLSSSGAQTPGAHHFMSEYLKQEESTRQGARQLHVLVPQSPPTDLPGLTREVTQDDLDRIQASQWPGVNGCQDTQGNWYDWTQCISLDPHGDDGRLNILPYVCLD |
| – | – | binds | binds | MED20 (protein, UniProt Q9H944 1-212) MGVTCVSQMPVAEGKSVQQTVELLTRKLEMLGAEKQGTFCVDCETYHTAASTLGSQGQTGKLMYVMHNSEYPLSCFALFENGPCLIADTNFDVLMVKLKGFFQSAKASKIETRGTRYQYCDFLVKVGTVTMGPSARGISVEVEYGPCVVASDCWSLLLEFLQSFLGSHTPGAPAVFGNRHDAVYGPADTMVQYMELFNKIRKQQQVPVAGIR |
| – | – | binds | binds | TXNIP (protein, UniProt Q9H3M7 1-391) MVMFKKIKSFEVVFNDPEKVYGSGEKVAGRVIVEVCEVTRVKAVRILACGVAKVLWMQGSQQCKQTSEYLRYEDTLLLEDQPTGENEMVIMRPGNKYEYKFGFELPQGPLGTSFKGKYGCVDYWVKAFLDRPSQPTQETKKNFEVVDLVDVNTPDLMAPVSAKKEKKVSCMFIPDGRVSVSARIDRKGFCEGDEISIHADFENTCSRIVVPKAAIVARHTYLANGQTKVLTQKLSSVRGNHIISGTCASWRGKSLRVQKIRPSILGCNILRVEYSLLIYVSVPGSKKVILDLPLVIGSRSGLSSRTSSMASRTSSEMSWVDLNIPDTPEAPPCYMDVIPEDHRLESPTTPLLDDMDGSQDSPIFMYAPEFKFMPPPTYTEVDPCILNNNVQ |
| – | – | no binding | no binding | CCNC (protein, UniProt P24863 1-283) MAGNFWQSSHYLQWILDKQDLLKERQKDLKFLSEEEYWKLQIFFTNVIQALGEHLKLRQQVIATATVYFKRFYARYSLKSIDPVLMAPTCVFLASKVEEFGVVSNTRLIAAATSVLKTRFSYAFPKEFPYRMNHILECEFYLLELMDCCLIVYHPYRPLLQYVQDMGQEDMLLPLAWRIVNDTYRTDLCLLYPPFMIALACLHVACVVQQKDARQWFAELSVDMEKILEIIRVILKLYEQWKNFDERKEMATILSKMPKPKPPPNSEGEQGPNGSQNSSYSQS |
